# According to the supplement of paper PMC10849652:
# Sequences of proteins named here, by UniProt entry; tags and fusion partners are left off. A change or cut given only in a name is not applied to a line headed by its entry.
# UniProt P58107: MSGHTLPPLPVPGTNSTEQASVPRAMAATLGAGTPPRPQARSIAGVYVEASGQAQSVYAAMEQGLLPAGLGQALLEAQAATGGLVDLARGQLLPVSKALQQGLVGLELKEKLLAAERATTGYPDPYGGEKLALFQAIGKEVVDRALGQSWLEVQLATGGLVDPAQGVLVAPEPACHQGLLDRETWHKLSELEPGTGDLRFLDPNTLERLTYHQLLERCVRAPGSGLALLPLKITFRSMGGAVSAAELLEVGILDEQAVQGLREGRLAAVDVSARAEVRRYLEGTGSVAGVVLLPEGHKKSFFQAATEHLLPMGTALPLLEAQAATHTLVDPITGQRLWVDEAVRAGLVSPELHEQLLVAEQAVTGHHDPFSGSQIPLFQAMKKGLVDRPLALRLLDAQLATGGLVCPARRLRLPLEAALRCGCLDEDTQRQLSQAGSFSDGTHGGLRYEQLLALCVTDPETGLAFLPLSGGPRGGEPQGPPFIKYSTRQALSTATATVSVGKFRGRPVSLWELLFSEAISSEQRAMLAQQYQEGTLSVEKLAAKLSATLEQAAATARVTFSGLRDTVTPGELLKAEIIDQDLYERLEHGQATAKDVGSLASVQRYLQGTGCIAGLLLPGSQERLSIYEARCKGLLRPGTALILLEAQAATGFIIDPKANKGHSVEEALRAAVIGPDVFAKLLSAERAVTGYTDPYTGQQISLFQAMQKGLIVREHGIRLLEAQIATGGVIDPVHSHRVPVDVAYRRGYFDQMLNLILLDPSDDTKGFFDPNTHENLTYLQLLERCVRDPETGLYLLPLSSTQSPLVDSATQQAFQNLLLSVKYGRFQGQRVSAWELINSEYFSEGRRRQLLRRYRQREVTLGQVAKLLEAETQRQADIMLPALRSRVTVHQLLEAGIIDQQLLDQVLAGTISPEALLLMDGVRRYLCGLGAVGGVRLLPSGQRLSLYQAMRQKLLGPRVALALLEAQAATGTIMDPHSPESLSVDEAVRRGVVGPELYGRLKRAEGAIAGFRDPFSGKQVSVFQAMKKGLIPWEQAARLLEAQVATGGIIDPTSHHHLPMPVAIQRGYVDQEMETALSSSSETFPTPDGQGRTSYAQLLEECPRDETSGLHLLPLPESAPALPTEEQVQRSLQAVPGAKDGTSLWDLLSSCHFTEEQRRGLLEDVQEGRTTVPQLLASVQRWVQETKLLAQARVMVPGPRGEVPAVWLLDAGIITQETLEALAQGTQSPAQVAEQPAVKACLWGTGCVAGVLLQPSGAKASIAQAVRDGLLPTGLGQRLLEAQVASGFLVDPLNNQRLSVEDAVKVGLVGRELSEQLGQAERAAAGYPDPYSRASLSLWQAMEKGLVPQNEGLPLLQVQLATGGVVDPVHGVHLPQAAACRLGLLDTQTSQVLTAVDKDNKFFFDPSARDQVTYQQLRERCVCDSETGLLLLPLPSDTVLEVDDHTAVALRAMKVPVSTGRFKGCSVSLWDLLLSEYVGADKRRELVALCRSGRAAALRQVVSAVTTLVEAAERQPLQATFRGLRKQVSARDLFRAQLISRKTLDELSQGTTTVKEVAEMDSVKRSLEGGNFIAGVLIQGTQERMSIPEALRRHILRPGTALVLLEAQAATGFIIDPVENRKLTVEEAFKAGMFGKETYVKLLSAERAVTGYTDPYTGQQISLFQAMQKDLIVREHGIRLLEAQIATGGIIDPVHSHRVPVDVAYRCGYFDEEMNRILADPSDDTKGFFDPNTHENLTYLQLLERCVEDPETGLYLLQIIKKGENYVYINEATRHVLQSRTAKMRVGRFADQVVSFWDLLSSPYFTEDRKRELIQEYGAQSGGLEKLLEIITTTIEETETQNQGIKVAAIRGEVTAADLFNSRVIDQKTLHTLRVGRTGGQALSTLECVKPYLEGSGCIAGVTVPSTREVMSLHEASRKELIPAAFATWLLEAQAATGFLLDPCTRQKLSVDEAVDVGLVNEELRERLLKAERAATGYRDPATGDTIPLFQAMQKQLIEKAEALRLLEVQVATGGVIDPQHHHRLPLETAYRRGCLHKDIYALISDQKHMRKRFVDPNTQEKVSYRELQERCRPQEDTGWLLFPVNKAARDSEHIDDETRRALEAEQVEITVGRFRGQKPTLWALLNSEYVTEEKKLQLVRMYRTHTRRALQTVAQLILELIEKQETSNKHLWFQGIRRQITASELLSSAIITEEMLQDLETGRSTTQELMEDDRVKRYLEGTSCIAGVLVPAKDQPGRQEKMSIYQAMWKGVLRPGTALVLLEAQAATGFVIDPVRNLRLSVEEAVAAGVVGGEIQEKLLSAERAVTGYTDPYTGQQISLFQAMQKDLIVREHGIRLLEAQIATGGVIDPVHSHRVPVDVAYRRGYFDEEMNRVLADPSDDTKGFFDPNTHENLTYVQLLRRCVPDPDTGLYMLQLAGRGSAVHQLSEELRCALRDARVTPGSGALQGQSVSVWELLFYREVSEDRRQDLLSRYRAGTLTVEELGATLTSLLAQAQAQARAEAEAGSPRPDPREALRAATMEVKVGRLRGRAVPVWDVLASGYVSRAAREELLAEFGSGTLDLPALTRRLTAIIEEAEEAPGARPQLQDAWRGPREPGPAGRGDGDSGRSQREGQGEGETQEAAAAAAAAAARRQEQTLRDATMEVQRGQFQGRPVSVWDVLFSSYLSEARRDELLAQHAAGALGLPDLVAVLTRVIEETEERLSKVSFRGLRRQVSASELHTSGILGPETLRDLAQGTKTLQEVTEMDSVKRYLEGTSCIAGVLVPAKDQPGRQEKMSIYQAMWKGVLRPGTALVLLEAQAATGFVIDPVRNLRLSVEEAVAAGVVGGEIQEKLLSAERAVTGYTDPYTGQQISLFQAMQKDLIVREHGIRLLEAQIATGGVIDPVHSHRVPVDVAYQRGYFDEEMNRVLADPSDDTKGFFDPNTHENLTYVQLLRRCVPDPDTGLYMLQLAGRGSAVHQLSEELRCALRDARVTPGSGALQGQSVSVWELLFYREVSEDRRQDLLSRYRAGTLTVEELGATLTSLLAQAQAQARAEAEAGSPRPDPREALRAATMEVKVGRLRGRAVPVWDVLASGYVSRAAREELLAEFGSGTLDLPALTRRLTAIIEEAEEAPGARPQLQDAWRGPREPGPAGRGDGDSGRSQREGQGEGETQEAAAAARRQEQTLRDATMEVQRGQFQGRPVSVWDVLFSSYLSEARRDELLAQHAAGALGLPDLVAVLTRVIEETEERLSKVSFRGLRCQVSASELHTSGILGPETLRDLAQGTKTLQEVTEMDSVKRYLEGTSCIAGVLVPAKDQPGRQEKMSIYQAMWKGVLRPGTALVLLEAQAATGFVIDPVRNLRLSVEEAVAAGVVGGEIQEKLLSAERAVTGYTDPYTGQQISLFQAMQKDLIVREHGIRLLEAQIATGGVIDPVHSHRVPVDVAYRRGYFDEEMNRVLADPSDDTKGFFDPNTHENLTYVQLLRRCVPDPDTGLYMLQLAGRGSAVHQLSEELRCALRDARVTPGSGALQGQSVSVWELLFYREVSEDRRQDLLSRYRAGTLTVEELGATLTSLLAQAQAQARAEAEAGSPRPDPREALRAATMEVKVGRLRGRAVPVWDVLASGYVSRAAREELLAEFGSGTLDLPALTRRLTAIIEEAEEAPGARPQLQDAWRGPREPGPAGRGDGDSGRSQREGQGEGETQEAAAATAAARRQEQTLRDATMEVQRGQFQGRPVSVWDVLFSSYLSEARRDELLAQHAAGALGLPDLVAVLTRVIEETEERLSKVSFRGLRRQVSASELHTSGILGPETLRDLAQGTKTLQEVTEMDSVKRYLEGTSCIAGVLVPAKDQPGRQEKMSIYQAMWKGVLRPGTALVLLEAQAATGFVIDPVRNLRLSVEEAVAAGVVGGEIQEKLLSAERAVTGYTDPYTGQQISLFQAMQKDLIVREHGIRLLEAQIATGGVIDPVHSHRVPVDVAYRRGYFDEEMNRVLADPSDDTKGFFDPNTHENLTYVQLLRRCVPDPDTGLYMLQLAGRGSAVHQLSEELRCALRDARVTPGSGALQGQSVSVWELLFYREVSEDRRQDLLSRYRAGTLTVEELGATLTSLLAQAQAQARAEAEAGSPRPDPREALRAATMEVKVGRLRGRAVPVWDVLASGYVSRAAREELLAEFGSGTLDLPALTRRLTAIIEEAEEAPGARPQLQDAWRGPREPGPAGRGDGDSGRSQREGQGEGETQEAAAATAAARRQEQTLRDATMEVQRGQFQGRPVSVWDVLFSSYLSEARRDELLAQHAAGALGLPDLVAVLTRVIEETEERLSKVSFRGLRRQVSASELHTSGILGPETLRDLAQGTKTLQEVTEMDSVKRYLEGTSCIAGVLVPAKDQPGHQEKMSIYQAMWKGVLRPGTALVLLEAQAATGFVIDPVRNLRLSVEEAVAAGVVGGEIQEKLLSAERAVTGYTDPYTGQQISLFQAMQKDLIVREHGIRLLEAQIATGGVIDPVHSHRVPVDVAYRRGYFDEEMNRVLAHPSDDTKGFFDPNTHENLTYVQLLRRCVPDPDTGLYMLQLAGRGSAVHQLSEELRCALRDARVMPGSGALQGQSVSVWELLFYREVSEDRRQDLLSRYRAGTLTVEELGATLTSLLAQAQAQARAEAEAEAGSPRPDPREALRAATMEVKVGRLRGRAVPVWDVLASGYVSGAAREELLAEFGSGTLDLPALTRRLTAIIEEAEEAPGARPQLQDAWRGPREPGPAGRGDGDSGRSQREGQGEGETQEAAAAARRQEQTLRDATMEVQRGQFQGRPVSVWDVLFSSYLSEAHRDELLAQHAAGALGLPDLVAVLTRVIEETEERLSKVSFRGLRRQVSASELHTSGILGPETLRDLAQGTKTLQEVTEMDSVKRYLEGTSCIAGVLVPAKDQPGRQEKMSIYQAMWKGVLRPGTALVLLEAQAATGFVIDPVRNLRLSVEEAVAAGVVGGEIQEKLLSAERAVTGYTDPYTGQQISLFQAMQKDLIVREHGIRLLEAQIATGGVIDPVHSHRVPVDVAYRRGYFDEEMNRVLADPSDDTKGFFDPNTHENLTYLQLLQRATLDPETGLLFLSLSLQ
# UniProt Q7Z309: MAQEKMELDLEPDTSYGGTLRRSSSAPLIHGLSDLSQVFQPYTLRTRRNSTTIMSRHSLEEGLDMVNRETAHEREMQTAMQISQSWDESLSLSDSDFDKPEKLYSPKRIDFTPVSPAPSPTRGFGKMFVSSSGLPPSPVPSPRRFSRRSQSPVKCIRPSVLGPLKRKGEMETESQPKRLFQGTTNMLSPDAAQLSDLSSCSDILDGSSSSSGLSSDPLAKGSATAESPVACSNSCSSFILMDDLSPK
# UniProt Q6P1L5: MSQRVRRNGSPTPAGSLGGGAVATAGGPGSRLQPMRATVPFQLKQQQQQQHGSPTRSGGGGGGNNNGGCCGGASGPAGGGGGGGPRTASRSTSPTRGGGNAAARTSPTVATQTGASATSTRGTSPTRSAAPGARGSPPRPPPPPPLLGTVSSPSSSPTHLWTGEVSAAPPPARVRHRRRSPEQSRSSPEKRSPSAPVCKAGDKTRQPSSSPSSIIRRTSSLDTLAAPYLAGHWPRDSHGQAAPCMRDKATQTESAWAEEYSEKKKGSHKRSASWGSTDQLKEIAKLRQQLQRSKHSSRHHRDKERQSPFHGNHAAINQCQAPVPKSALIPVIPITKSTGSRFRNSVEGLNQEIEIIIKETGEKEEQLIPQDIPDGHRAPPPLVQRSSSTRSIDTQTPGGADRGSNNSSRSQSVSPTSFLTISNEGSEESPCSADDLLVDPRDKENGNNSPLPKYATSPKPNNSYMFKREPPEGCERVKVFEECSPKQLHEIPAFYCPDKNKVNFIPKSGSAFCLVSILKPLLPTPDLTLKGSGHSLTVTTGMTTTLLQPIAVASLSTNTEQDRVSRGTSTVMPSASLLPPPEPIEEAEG
# UniProt O95718: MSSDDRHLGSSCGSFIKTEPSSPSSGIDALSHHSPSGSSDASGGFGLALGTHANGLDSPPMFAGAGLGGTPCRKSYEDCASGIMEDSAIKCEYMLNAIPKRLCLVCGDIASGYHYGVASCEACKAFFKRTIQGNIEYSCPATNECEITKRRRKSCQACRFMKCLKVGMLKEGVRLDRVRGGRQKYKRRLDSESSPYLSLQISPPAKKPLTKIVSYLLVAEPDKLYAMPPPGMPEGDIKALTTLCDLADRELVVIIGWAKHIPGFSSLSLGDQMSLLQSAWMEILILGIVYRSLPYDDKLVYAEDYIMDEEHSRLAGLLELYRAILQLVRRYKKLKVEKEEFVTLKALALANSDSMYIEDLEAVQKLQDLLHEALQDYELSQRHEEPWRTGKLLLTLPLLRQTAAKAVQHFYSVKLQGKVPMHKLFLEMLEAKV
# UniProt Q9UKR5: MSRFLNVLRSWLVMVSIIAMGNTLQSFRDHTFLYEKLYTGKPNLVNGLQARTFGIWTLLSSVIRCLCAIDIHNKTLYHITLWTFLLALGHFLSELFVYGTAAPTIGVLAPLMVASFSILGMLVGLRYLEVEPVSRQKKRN
# This is one part of the list.
# How the values were obtained:
# Assay in all cases: log2 fold change, soluble protein after heating vs DMSO (PISA); higher = thermal stabilisation; K562 cells, 10 uM, 30 min; active = over 0.2 and 3.5 SD of the protein, either way, in both replicates (recomputed)
# bafetinib = compound: Cc1ccc(NC(=O)c2ccc(CN3CC[C@H](N(C)C)C3)c(C(F)(F)F)c2)cc1Nc1nccc(-c2cncnc2)n1 [bafetinib]
# How it was run: (§1)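 K562 cells at 2×10^6 cells/mL were exposed to 10 μM compound for 30 min, then aliquots were heated for 3 min across 48°C-58°C, pooled, and extracted in PBS containing 0.5% NP-40 at 4°C. The supernatant after 21,000xg for 90 min was taken as soluble protein and measured by TMTpro 16plex LC-MS/MS with channel sums equalised. Thermal stability is reported relative to control samples, with values from duplicates. Fold changes are given on a log2 scale.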
# [1] = compound: Cc1cccc(CC(=O)N2CCc3c2ccc(-c2cn(C)c4ncnc(N)c24)c3F)n1
# How it was run: as §1
# nilotinib = compound: Cc1cn(-c2cc(NC(=O)c3ccc(C)c(Nc4nccc(-c5cccnc5)n4)c3)cc(C(F)(F)F)c2)cn1 [nilotinib]
# How it was run: as §1
# [2] = compound: Cc1nc(Nc2n[nH]c3c2CN(C(=O)N[C@H](CN(C)C)c2ccccc2)C3(C)C)c2sccc2n1
# How it was run: as §1
# dasatinib = compound: Cc1nc(Nc2ncc(C(=O)Nc3c(C)cccc3Cl)s2)cc(N2CCN(CCO)CC2)n1 [dasatinib]
# How it was run: as §1
# [3] = compound: Cc1ncc(-c2ccnc(Nc3ccc(S(C)(=O)=O)cc3)n2)n1C(C)C
# How it was run: as §1
# [4] = compound: Cn1cc(-c2ccc3c(c2)CCN3C(=O)Cc2cccc(C(F)(F)F)c2)c2c(N)ncnc21
# How it was run: as §1
# [5] = compound: Cn1cc(-c2ccc3nnc(C(F)(F)c4ccc5ncccc5c4)n3n2)cn1
# How it was run: as §1
# tipifarnib = compound: Cn1cncc1[C@@](N)(c1ccc(Cl)cc1)c1ccc2c(c1)c(-c1cccc(Cl)c1)cc(=O)n2C [tipifarnib]
# How it was run: as §1
# mubritinib = compound: FC(F)(F)c1ccc(/C=C/c2nc(COc3ccc(CCCCn4ccnn4)cc3)co2)cc1 [mubritinib]
# How it was run: as §1
# [6] = compound: NC(=O)Nc1cc(-c2cccc(F)c2)sc1C(=O)N[C@H]1CCCNC1
# How it was run: as §1
# [7] = compound: NC1(c2ccc(-c3nc4ccn5c(=O)[nH]nc5c4cc3-c3ccccc3)cc2)CCC1
# How it was run: as §1
# [8] = compound: NCC(=O)Nc1ccc(-n2nc(C(F)(F)F)cc2-c2ccc3c(ccc4ccccc43)c2)cc1
# How it was run: as §1
# entinostat = compound: Nc1ccccc1NC(=O)c1ccc(CNC(=O)OCc2cccnc2)cc1 [entinostat]
# How it was run: as §1
# vorinostat = compound: O=C(CCCCCCC(=O)Nc1ccccc1)NO [vorinostat]
# How it was run: as §1
# citarinostat = compound: O=C(CCCCCCNC(=O)c1cnc(N(c2ccccc2)c2ccccc2Cl)nc1)NO [citarinostat]
# How it was run: as §1
# silmitasertib = compound: O=C(O)c1ccc2c(c1)nc(Nc1cccc(Cl)c1)c1ccncc12 [silmitasertib]
# How it was run: as §1
# [9] = compound: O=C1NC(=O)C(c2cnc3ccccn23)=C1c1cn2c3c(cc(F)cc13)CN(C(=O)N1CCCCC1)CC2
# How it was run: as §1
# [10] = compound: c1cc(OCCN2CCCCC2)cc(-c2n[nH]c3ccc(-c4nnc[nH]4)cc23)c1
# How it was run: as §1
# [11] = compound: NC(=O)c1cnc(N[C@@H]2CCCC[C@@H]2N)nc1Nc1cccc(-n2nccn2)c1
# How it was run: as §1
Target,log2 fold change (bafetinib),log2 fold change [1],log2 fold change (nilotinib),log2 fold change [2],log2 fold change (dasatinib),log2 fold change [3],log2 fold change [4],log2 fold change [5],log2 fold change (tipifarnib),log2 fold change (mubritinib),log2 fold change [6],log2 fold change [7],log2 fold change [8],log2 fold change (entinostat),log2 fold change (vorinostat),log2 fold change (citarinostat),log2 fold change (silmitasertib),log2 fold change [9],log2 fold change [10],log2 fold change [11]
EPPK1 (UniProt P58107),inactive: 0.065,inactive: 0.061,inactive: 0.018,inactive: -0.177,inactive: -0.07,inactive: -0.078,inactive: -0.36,inactive: -0.332,inactive: 0.571,inactive: -0.132,inactive: 0.042,inactive: 0.113,inactive: -0.07,inactive: -0.202,inactive: 0.131,inactive: -0.119,inactive: 0.238,inactive: 0.238,inactive: -0.112,
FAM20B (UniProt O75063),inactive: -0.01,inactive: 0.041,inactive: -0.131,inactive: -0.078,inactive: 0.008,inactive: -0.07,inactive: 0.044,inactive: -0.015,inactive: 0.057,inactive: 0.006,inactive: 0.053,inactive: -0.127,inactive: 0.007,inactive: 0.006,inactive: -0.025,inactive: 0.047,inactive: -0.033,inactive: 0.046,inactive: -0.052,inactive: 0.078
FAM122B isoform 3 (UniProt Q7Z309),inactive: -0.05,inactive: 0.1,inactive: 0.162,inactive: -0.281,inactive: -0.016,inactive: 0.059,inactive: 0.05,inactive: -0.047,,inactive: -0.072,inactive: -0.272,inactive: 0.147,inactive: -0.035,inactive: -0.009,inactive: 0.086,inactive: 0.125,inactive: 0.096,inactive: 0.322,inactive: -0.144,inactive: 0.018
ERMP1 (UniProt Q7Z2K6),inactive: -0.032,inactive: -0.066,inactive: 0.053,inactive: 0.016,inactive: 0.047,inactive: -0.012,inactive: 0.021,inactive: 0.03,inactive: 0.04,inactive: 0.022,inactive: -0.003,inactive: -0.036,inactive: -0.026,inactive: -0.041,inactive: -0.032,inactive: 0.007,inactive: 0.001,inactive: -0.007,inactive: 0.005,inactive: 0.028
ETNK1 (UniProt Q9HBU6),inactive: -0.042,inactive: 0.037,inactive: -0.043,inactive: 0.08,inactive: -0.07,inactive: 0.06,inactive: 0.026,inactive: 0.008,inactive: -0.183,inactive: 0.036,active: 0.25,inactive: -0.144,inactive: -0.057,inactive: 0.089,inactive: -0.01,inactive: 0.019,inactive: 0.041,inactive: 0.208,inactive: -0.084,inactive: 0.011
ESPL1 (UniProt Q14674),inactive: -0.051,inactive: -0.144,inactive: 0.009,inactive: -0.093,,inactive: -0.217,inactive: -0.015,inactive: 0.062,inactive: -0.298,inactive: 0.058,inactive: -0.105,inactive: 0.018,inactive: 0.328,inactive: -0.04,inactive: -0.093,,inactive: -0.056,inactive: -0.27,,inactive: 0.092
ERI3 (UniProt H0Y4B0),inactive: -0.139,,,,,,,,,,inactive: -0.094,,,inactive: -0.069,,inactive: -0.424,,inactive: -0.765,inactive: -0.057,
ESYT2 (UniProt H7BXI1),inactive: 0.054,,inactive: 0.051,inactive: -0.136,inactive: -0.019,inactive: 0.043,,,inactive: 0.149,inactive: 0.186,inactive: 0.079,inactive: -0.152,inactive: 0.056,inactive: -0.009,,inactive: 0.043,inactive: -0.015,inactive: 0.21,inactive: -0.14,inactive: -0.136
EPB41L2 isoform 4 (UniProt O43491),inactive: 0.195,,inactive: -0.118,inactive: 0.098,,inactive: -0.127,,,inactive: -0.235,inactive: -0.159,inactive: 0.096,inactive: -0.034,,inactive: 0.015,,,inactive: -0.247,inactive: -0.047,,
EVI5 isoform 2 (UniProt O60447),,inactive: 0.088,,,inactive: -0.202,,inactive: -0.147,inactive: 0.013,inactive: 0.01,,,,inactive: -0.089,,inactive: 0.259,,,,,inactive: 0.163
FADD (UniProt Q13158),inactive: -0.066,,inactive: -0.041,inactive: -0.046,inactive: -0.343,inactive: 0.022,inactive: 0.05,inactive: -0.048,inactive: -0.089,inactive: 0.044,inactive: -0.038,inactive: -0.081,inactive: -0.015,inactive: 0.096,,inactive: -0.102,inactive: 0.01,inactive: -0.033,inactive: -0.241,inactive: -0.09
FAM126B (UniProt Q8IXS8),,inactive: -0.018,inactive: -0.073,inactive: 0.072,inactive: -0.129,inactive: 0.212,,,inactive: 0.001,,,,,,inactive: -0.202,,,,,inactive: -0.106
ESF1 (UniProt Q9H501),inactive: 0.068,inactive: -0.168,,,inactive: 0.053,,,inactive: -0.234,,,inactive: 0.002,,,inactive: 0.079,inactive: 0.123,,,,,
F13A1 (UniProt P00488),inactive: -0.169,,inactive: -0.09,inactive: 0.039,inactive: -0.006,inactive: 0.08,,,,inactive: -0.191,,inactive: -0.018,,,,inactive: 0.025,inactive: 0.087,,inactive: -0.068,
F10 (UniProt P00742),inactive: -0.081,,inactive: 0.145,inactive: -0.135,,inactive: 0.289,,inactive: -0.086,,inactive: -0.196,inactive: -0.058,inactive: -0.077,inactive: 0.066,inactive: 0.021,,inactive: 0.09,inactive: 0.012,inactive: 0.071,inactive: 0.204,
ETF1 isoform 2 (UniProt P62495),inactive: -0.18,inactive: 0.006,,,inactive: -0.047,,,inactive: 0.166,inactive: 0.1,,,,inactive: -0.378,,inactive: 0.12,inactive: 0.043,,,inactive: -0.439,inactive: -0.202
EZH2 isoform 2 (UniProt Q15910),inactive: 0.146,,,,inactive: -0.113,,inactive: 0.055,,inactive: -0.021,inactive: -0.097,inactive: 0.316,inactive: 0.342,inactive: 0.33,inactive: -0.039,,,inactive: 0.046,inactive: -0.118,,inactive: -0.004
ERAL1 (UniProt O75616),inactive: 0.249,,inactive: 0.093,inactive: -0.049,inactive: 0.101,inactive: -0.078,inactive: 0.272,,inactive: 0,inactive: -0.041,inactive: 0.123,inactive: 0.019,inactive: -0.056,inactive: -0.08,,inactive: -0.026,inactive: -0.005,inactive: 0.023,inactive: -0.146,inactive: -0.169
FADS1 (UniProt F5GYH4),inactive: 0.034,,,,,,,,,,,,inactive: -0.191,,,,,,,
FAM117B (UniProt Q6P1L5),,inactive: 0.01,,,inactive: 0.207,,inactive: -0.029,inactive: 0.072,,,,,inactive: 0.229,,inactive: 0.059,inactive: -0.047,,inactive: -0.144,inactive: 0.105,inactive: -0.159
ESRRB isoform 1 (UniProt O95718),inactive: 0.044,,,,inactive: -0.105,,inactive: -0.044,,,,,,inactive: 0.036,,,inactive: -0.02,,,inactive: -0.038,
ERG28 (UniProt Q9UKR5),inactive: -0.139,,inactive: 0.035,inactive: -0.028,,inactive: -0.062,inactive: 0.008,inactive: 0.089,inactive: 0.041,inactive: 0.003,inactive: -0.056,inactive: 0.124,inactive: -0.092,inactive: 0.018,,inactive: -0.006,inactive: -0.082,inactive: 0.018,inactive: -0.178,inactive: -0.03
FAM185A (UniProt Q8N0U4),inactive: -0.047,,inactive: -0.024,inactive: 0.056,inactive: -0.145,inactive: 0.009,,inactive: 0.061,inactive: 0.093,inactive: 0.075,,inactive: -0.117,inactive: 0.037,,,,inactive: 0.069,,,inactive: -0.035
FAHD2B (UniProt Q6P2I3),inactive: -0.008,,inactive: 0.042,inactive: 0.069,inactive: 0.062,inactive: -0.109,inactive: -0.106,inactive: -0.065,inactive: -0.083,inactive: -0.052,,inactive: -0.147,,,,inactive: 0.102,inactive: -0.149,inactive: -0.07,inactive: 0.006,inactive: -0.034

# 2 consecutive entries out of the list so far, quoted:
Target,log2 fold change (bafetinib),log2 fold change [1],log2 fold change (nilotinib),log2 fold change [2],log2 fold change (dasatinib),log2 fold change [3],log2 fold change [4],log2 fold change [5],log2 fold change (tipifarnib),log2 fold change (mubritinib),log2 fold change [6],log2 fold change [7],log2 fold change [8],log2 fold change (entinostat),log2 fold change (vorinostat),log2 fold change (citarinostat),log2 fold change (silmitasertib),log2 fold change [9],log2 fold change [10],log2 fold change [11]
ESRRB isoform 1 (UniProt O95718),inactive: 0.044,,,,inactive: -0.105,,inactive: -0.044,,,,,,inactive: 0.036,,,inactive: -0.02,,,inactive: -0.038,
ERG28 (UniProt Q9UKR5),inactive: -0.139,,inactive: 0.035,inactive: -0.028,,inactive: -0.062,inactive: 0.008,inactive: 0.089,inactive: 0.041,inactive: 0.003,inactive: -0.056,inactive: 0.124,inactive: -0.092,inactive: 0.018,,inactive: -0.006,inactive: -0.082,inactive: 0.018,inactive: -0.178,inactive: -0.03
